The list does not hold the whole screen: it is rich in T/C values a quarter to a half above the control, in often repeated tests (any T/C) and in doses without a T/C. Further doses and runs are listed elsewhere. T/C gives the treated animals as a percentage of the vehicle group. Schedule codes are those of the source, taken here to give the interval after Q, in days (D) or hours (H), and the number of doses after X. Some T/C values are followed by the survivors on the day toxicity was checked, most often the fifth; without a count, all were alive then. Some entries were tested several times; the results are listed from low to high. Some doses have a count of surviving animals in place of a T/C: the source holds a T/C of zero for them, seemingly a mark for toxic or unscored doses. Counts of survivors are from the toxicity check (mostly the fifth day) where no day follows; animals may have died later. For survival time, this PubChem deposit counts one and a half times the control or more as active, and values a quarter to a half above the control carry no call in these data; other NCI protocols may use other cut-offs.
Tested on: BDF1 mice, colon carcinoma 38 sc, T/C %
Test: NCI In Vivo Anticancer Drug Screen. Data for tumor model Colon Carcinoma 38 (subcutaneous) in B6D2F1 (BDF1) mice
How it was run: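 Transplantable tumor in mice; compound-treated vs vehicle-dosed controls. Measured survival or tumor size; value = T ÷ C.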

Structure (SMILES): CCCNC1=C(C)C(=O)C2=C(C1=O)[C@H](COC(N)=O)[C@]1(OC)[C@@H]3N[C@@H]3CN21
- survivor count (T/C endpoint: median tumor weight (est.), dose: 24.0 mg/kg/injection, schedule: Q07DX002 (ip), vehicle: suspension in saline, higher T/C = larger tumour): 2 of 10 on day 20
- survivor count (T/C endpoint: median tumor weight (est.), dose: 25.0 mg/kg/injection, schedule: Q07DX002 (ip), vehicle: saline, higher T/C = larger tumour): 1 of 10 on day 20
- survivor count (T/C endpoint: median tumor weight (est.), dose: 48.0 mg/kg/injection, schedule: Q07DX002 (ip), vehicle: suspension in saline, higher T/C = larger tumour): 1 of 10 on day 20

Structure (SMILES): CC(C)(C)C1CCCCC1
- T/C (T/C endpoint: median tumor weight (est.), dose: 50.0 mg/kg/injection, schedule: Q07DX002 (ip), vehicle: Klucel (hydroxypropylcellulose) (HPC), evaluated on day 20, higher T/C = larger tumour): 136 % of control
- survivor count (T/C endpoint: median tumor weight (est.), dose: 400.0 mg/kg/injection, schedule: Q07DX002 (ip), vehicle: Klucel (hydroxypropylcellulose) (HPC), higher T/C = larger tumour): 6 of 10 on day 20

Structure (SMILES): CSc1ncc2ncn(C3OC(CO)C(O)C3O)c2n1 (stereo unspecified)
- T/C (T/C endpoint: median tumor weight (est.), dose: 25.0 mg/kg/injection, schedule: Q07DX002 (ip), vehicle: Klucel (hydroxypropylcellulose) (HPC), evaluated on day 20, higher T/C = larger tumour): 133 % of control
- T/C (T/C endpoint: median tumor weight (est.), dose: 400.0 mg/kg/injection, schedule: Q07DX002 (ip), vehicle: Klucel (hydroxypropylcellulose) (HPC), evaluated on day 20, higher T/C = larger tumour): 130 % of control

Structure (SMILES): C[C@@H]1C(=O)C[C@H]2C(C)(C)CCC[C@]2(C)[C@@]1(O)CCc1ccoc1
- T/C (T/C endpoint: median tumor weight (est.), dose: 100.0 mg/kg/injection, schedule: Q07DX002 (ip), vehicle: Klucel (hydroxypropylcellulose) (HPC), evaluated on day 20, higher T/C = larger tumour): 128 % of control

Structure (SMILES): [N-]=[N+]=CC(=O)CCC(N)C(=O)O (stereo unspecified)
- T/C (T/C endpoint: median tumor weight (est.), dose: 6.25 mg/kg/injection, schedule: Q07DX003 (ip), vehicle: saline, evaluated on day 20, higher T/C = larger tumour): 26 [9 of 10 alive], 49, 64, 69 % of control
- T/C (T/C endpoint: median tumor weight (est.), dose: 12.5 mg/kg/injection, schedule: Q07DX003 (ip), vehicle: saline, evaluated on day 20, higher T/C = larger tumour): 21 [9 of 10 alive], 28, 42, 50 % of control
- T/C (T/C endpoint: median tumor weight (est.), dose: 25.0 mg/kg/injection, schedule: Q07DX003 (ip), vehicle: saline, evaluated on day 20, higher T/C = larger tumour): 9, 17 [9 of 10 alive], 27 [9 of 10 alive], 30 % of control
- survivor count (T/C endpoint: median tumor weight (est.), dose: 50.0 mg/kg/injection, schedule: Q07DX003 (ip), vehicle: saline, higher T/C = larger tumour): 5 of 10
- survivor count (T/C endpoint: median tumor weight (est.), dose: 100.0 mg/kg/injection, schedule: Q07DX003 (ip), vehicle: saline, higher T/C = larger tumour): 5 of 10

Structure (SMILES): C[CH2][Sn]1([CH2]C)[O]OC(c2ccccc2)[O]1 (stereo unspecified)
- T/C (T/C endpoint: median tumor weight (est.), dose: 3.12 mg/kg/injection, schedule: Q07DX002 (ip), vehicle: saline with Tween-80, evaluated on day 20, higher T/C = larger tumour): 135 % of control
- survivor count (T/C endpoint: median tumor weight (est.), dose: 50.0 mg/kg/injection, schedule: Q07DX002 (ip), vehicle: saline with Tween-80, higher T/C = larger tumour): 6 of 10 on day 20

Structure (SMILES): CC(=O)[C@]1(O)Cc2c(O)c3c(c(O)c2[C@@H](OC2CC(N)C(O)C(C)O2)C1)C(=O)c1c(O)cccc1C3=O (stereo partly specified)
- T/C (T/C endpoint: median survival time, dose: 1.1 mg/kg/injection, schedule: Q07DX003 (iv), vehicle: water, higher T/C = longer survival): 135 % of control [9 of 10 alive on day 60]
- survivor count (T/C endpoint: median survival time, dose: 4.3 mg/kg/injection, schedule: Q07DX003 (iv), vehicle: water, higher T/C = longer survival): 3 of 10 on day 60

Structure (SMILES): CONc1ccn(C2OC(CO)C(O)C2O)c(=O)n1 (stereo unspecified)
- T/C (T/C endpoint: median tumor weight (est.), dose: 100.0 mg/kg/injection, schedule: Q07DX002 (ip), vehicle: saline, evaluated on day 20, higher T/C = larger tumour): 128 % of control
- T/C (T/C endpoint: median tumor weight (est.), dose: 200.0 mg/kg/injection, schedule: Q07DX002 (ip), vehicle: saline, evaluated on day 20, higher T/C = larger tumour): 126 % of control
- T/C (T/C endpoint: median tumor weight (est.), dose: 400.0 mg/kg/injection, schedule: Q07DX002 (ip), vehicle: saline, evaluated on day 20, higher T/C = larger tumour): 135 % of control [8 of 10 alive on day 20]
- survivor count (T/C endpoint: median tumor weight (est.), dose: 800.0 mg/kg/injection, schedule: Q07DX002 (ip), vehicle: saline, higher T/C = larger tumour): 1 of 10 on day 20 and 4 of 10 on day 20

Structure (SMILES): C[C@]12CC[C@@H]3c4ccc(OC(=O)Cc5ccc(N(CCCl)CCCl)cc5)cc4CC[C@H]3[C@@H]1CC[C@@H]2OC(=O)Cc1ccc(N(CCCl)CCCl)cc1
- T/C (T/C endpoint: median tumor weight (est.), dose: 25.0 mg/kg/injection, schedule: Q07DX002 (ip), vehicle: saline with Tween-80, evaluated on day 20, higher T/C = larger tumour): 125 and 141 % of control
- T/C (T/C endpoint: median tumor weight (est.), dose: 50.0 mg/kg/injection, schedule: Q07DX002 (ip), vehicle: saline with Tween-80, evaluated on day 20, higher T/C = larger tumour): 142 % of control
- T/C (T/C endpoint: median tumor weight (est.), dose: 100.0 mg/kg/injection, schedule: Q07DX002 (ip), vehicle: saline with Tween-80, evaluated on day 20, higher T/C = larger tumour): 140 % of control
- T/C (T/C endpoint: median tumor weight (est.), dose: 400.0 mg/kg/injection, schedule: Q07DX002 (ip), vehicle: saline with Tween-80, evaluated on day 20, higher T/C = larger tumour): 149 % of control
- T/C (T/C endpoint: median tumor weight (est.), dose: 800.0 mg/kg/injection, schedule: Q07DX002 (ip), vehicle: saline with Tween-80, evaluated on day 20, higher T/C = larger tumour): 144 % of control
